PubChem BioAssay AID1259254 | NCATS – 2017
Here is a random part of about 59,000 deposited reagents. In the full data, about 1,550 (2.6%) are marked active. 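G2 share is only a proxy for re-replication; each gene was hit by three separate siRNAs, and active genes were retested.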 The raw values are shown without normalisation. Unmarked entries are inactive. The numbers tell different reagents against one gene apart. Not stated in the record: the amount of reagent.

Test: 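Genome-wide screen for genes that prevent DNA re-replication in cancer cells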 (primary screen)
System: human HCT116 colorectal cancer cells
Reagent: single siRNA against human genes
Time to read-out: 3 days
Read-out: 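Imaged Hoechst DNA stain sorts each cell into a cycle phase by DNA amount; per plate, G2 fraction set to 0% for non-targeting and 100% for GMNN siRNA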
Direction: G2 robust z-score and G2 cells, % of GMNN control: higher = more G2 cells, more excess DNA replication; raw share of cells in G2: higher = larger share of cells with G2 DNA content
Call rule: 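An siRNA counts as active if its G2 robust z-score lies at least 5 MADs above the screen median; here such calls match roughly 38% of GMNN control or more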

gene | reagent | G2 robust z-score | G2 cells, % of GMNN control | raw share of cells in G2 (%)
IRF7 (interferon regulatory factor 7) | 1 | 0.24 | 4.66 | 7.46
IRF7 (interferon regulatory factor 7) | 2 | 0.718 | 8.02 | 7.14
IRF7 (interferon regulatory factor 7) | 3 | 1.73 | 15.1 | 10.5
WAS (WASP actin nucleation promoting factor) | 1 | 1.86 | 16 | 12.2
WAS (WASP actin nucleation promoting factor) | 2 | 3.39 | 26.8 | 14.5
WAS (WASP actin nucleation promoting factor) | 3 | 0.498 | 6.47 | 5.64
UXS1 (UDP-glucuronate decarboxylase 1) | 1 | -0.618 | -1.38 | 4.86
UXS1 (UDP-glucuronate decarboxylase 1) | 2 | 1.32 | 12.3 | 8.64
UXS1 (UDP-glucuronate decarboxylase 1) | 3 | 4.71 | 36.1 | 18.2
HMGB3P19 (high mobility group box 3 pseudogene 19) | 1 | -0.78 | -2.52 | 3.1
HMGB3P19 (high mobility group box 3 pseudogene 19) | 2 | -1.12 | -4.92 | 1.56
HMGB3P19 (high mobility group box 3 pseudogene 19) | 3 | -0.705 | -2 | 2.45
CFHR1 (complement factor H related 1) | 1 | -1 | -4.09 | 1.92
CFHR1 (complement factor H related 1) | 2 | 0.253 | 4.74 | 7.53
CFHR1 (complement factor H related 1) | 3 | -0.85 | -3.01 | 2.98
SYMPK (symplekin scaffold protein) | 1 | -1.14 | -5.08 | 2.8
SYMPK (symplekin scaffold protein) | 2 | 0.754 | 8.28 | 7.34
SYMPK (symplekin scaffold protein) | 3 | 2.78 | 22.5 | 15.1
TCF20 (transcription factor 20) | 1 | -0.0941 | 2.31 | 4.38
TCF20 (transcription factor 20) | 2 | 0.345 | 5.4 | 7.37
TCF20 (transcription factor 20) | 3 | 1.14 | 11 | 7.1
OR6N2 (olfactory receptor family 6 subfamily N member 2) | 1 | 1.24 | 11.7 | 9.3
OR6N2 (olfactory receptor family 6 subfamily N member 2) | 2 | -0.769 | -2.45 | 3.23
OR6N2 (olfactory receptor family 6 subfamily N member 2) | 3 | -0.0431 | 2.66 | 3.11
SLC37A2 | 1 | 3.04 | 24.4 | 17.6
SLC37A2 | 2 | -0.618 | -1.38 | 4.12
SLC37A2 | 3 | 0.338 | 5.35 | 6.66
PROB1 (proline rich basic protein 1) | 1 | 1.91 | 16.4 | 9.41
PROB1 (proline rich basic protein 1) | 2 | 2.41 | 19.9 | 12.1
PROB1 (proline rich basic protein 1) | 3 | -0.652 | -1.62 | 3.94

Next part (2 carried over from the part before).
gene | reagent | G2 robust z-score | G2 cells, % of GMNN control | raw share of cells in G2 (%)
PROB1 (proline rich basic protein 1) | 2 | 2.41 | 19.9 | 12.1
PROB1 (proline rich basic protein 1) | 3 | -0.652 | -1.62 | 3.94
IQCN (IQ motif containing N) | 1 | 2.34 | 19.4 | 12.5
IQCN (IQ motif containing N) | 2 | 0.664 | 7.64 | 7.64
IQCN (IQ motif containing N) | 3 | -0.725 | -2.14 | 1.79
PPM1K (protein phosphatase, Mg2+/Mn2+ dependent 1K) | 1 | -0.235 | 1.32 | 5.22
PPM1K (protein phosphatase, Mg2+/Mn2+ dependent 1K) | 2 | -0.431 | -0.0677 | 4.28
PPM1K (protein phosphatase, Mg2+/Mn2+ dependent 1K) | 3 | -0.789 | -2.58 | 2.72
DOK5 (docking protein 5) | 1 | 0.0536 | 3.34 | 5.81
DOK5 (docking protein 5) | 2 | 1.33 | 12.3 | 9.24
DOK5 (docking protein 5) | 3 | -0.137 | 2 | 3.78
RPS26P35 (ribosomal protein S26 pseudogene 35) | 1 | 2.75 | 22.3 | 10.7
RPS26P35 (ribosomal protein S26 pseudogene 35) | 2 | 3.06 | 24.5 | 13.1
RPS26P35 (ribosomal protein S26 pseudogene 35) | 3 | 2.07 | 17.5 | 10.1
FAM226B (family with sequence similarity 226 member B) | 1 | -0.312 | 0.772 | 3.66
FAM226B (family with sequence similarity 226 member B) | 2 | 0.123 | 3.83 | 4.59
FAM226B (family with sequence similarity 226 member B) | 3 | -0.485 | -0.446 | 2.65
FAM226B (family with sequence similarity 226 member B) | 4 | 3.28 | 26.1 | 14.3
FAM226B (family with sequence similarity 226 member B) | 5 | -0.891 | -3.3 | 2.1
FAM226B (family with sequence similarity 226 member B) | 6 | -0.624 | -1.43 | 2.65
LOC646179 (retired record) | 1 | 2.28 | 19 | 9.08
LOC646179 (retired record) | 2 | 0.108 | 3.73 | 5.18
LOC646179 (retired record) | 3 | -0.347 | 0.529 | 3.42
ALOX12B (arachidonate 12-lipoxygenase, 12R type) | 1 | -0.667 | -1.73 | 4.13
ALOX12B (arachidonate 12-lipoxygenase, 12R type) | 2 | 0.611 | 7.27 | 6.7
ALOX12B (arachidonate 12-lipoxygenase, 12R type) | 3 | -0.996 | -4.04 | 3.64
DYDC2 (DPY30 domain containing 2) | 1 | 2.6 | 21.3 | 11.2
DYDC2 (DPY30 domain containing 2) | 2 | -0.084 | 2.38 | 4.16
DYDC2 (DPY30 domain containing 2) | 3 | -0.173 | 1.75 | 2.94
GCGR (glucagon receptor) | 1 | -0.377 | 0.315 | 3.37
GCGR (glucagon receptor) | 2 | 2.14 | 18.1 | 12.3
GCGR (glucagon receptor) | 3 | -0.923 | -3.53 | 3.28
CTRL (chymotrypsin like) | 1 | -0.478 | -0.395 | 5.42
CTRL (chymotrypsin like) | 2 | 0.277 | 4.92 | 6.65
CTRL (chymotrypsin like) | 3 | -0.678 | -1.81 | 3.24
VEZT (vezatin, adherens junctions transmembrane protein) | 1 | -0.0714 | 2.46 | 5.47
VEZT (vezatin, adherens junctions transmembrane protein) | 2 | -0.106 | 2.22 | 5.06
VEZT (vezatin, adherens junctions transmembrane protein) | 3 | 4.37 | 33.7 | 13.9
TXLNA (taxilin alpha) | 1 | 0.428 | 5.98 | 5.74
TXLNA (taxilin alpha) | 2 | -0.611 | -1.33 | 2.51
TXLNA (taxilin alpha) | 3 | -0.24 | 1.28 | 3.17
